No constants are given. Whether binding was seen depends on the method and setting. In cells and extracts the contact can be indirect. Some binding calls cover weakened binding; strength is not graded here.
Target: Solanum tuberosum REMORIN group 1b homolog 3 (StREM1.3) (Solanum tuberosum) (UniProt P93788)
Assay: split reporter

B1: Solanum tuberosum REMORIN group 1b homolog 3 (StREM1.3) (protein, UniProt P93788 1-198)
chain: MAELEAKKVEIVDPAPPAPGPVEAPKEVVADEKAIVAPALPPPAEEKEKPDDSKALVVVETKAPEPADEKKEGSIDRDAVLARVATEKRVSLIKAWEESEKSKAENKAQKKVSAIGAWENSKKANLEAELKKMEEQLEKKKAEYTEKMKNKIALLHKEAEEKRAMIEAKRGEDLLKAEELAAKYRATGTAPKKILGIF
B1 was tested. Which binding did it give?
The binding was “binds”.

Reference: doi:10.1101/205765
